{
  "source": "the supplement of paper PMC12823440",
  "about": "“Inhibitors supercharge kinase turnover through native proteolytic circuits” (Nature, 2025)",
  "note": "Where a name gives a salt, the structure may show the parent alone. This is one part of the list. Hit calls seldom repeat between salt and free forms of one compound.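 Kinases were expressed as nanoluciferase fusions in K562 cells and luminescence was read every 4 h between 2 and 18 h as percent of control, DMSO set to 100% and a positive control to 0%. A time point counts as decreased when the signal drops significantly (2 sigma). The hit call is the authors' own, does not follow from the count of time points alone, and its rule is not shown.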",
  "data": [
    {"target": "EGFR_G719S (UniProt P00533)", "experiment": "number of time points (of 5) at which kinase-Nluc abundance scored as decreased, DMSO-normalised (count); higher = more persistent destabilization", "details": "K562; 2-18 h", "values": [
      {"smiles": "Cn1cnc2c(F)c(Nc3ccc(Br)cc3Cl)c(C(=O)NOCCO)cc21", "note": "[Selumetinib (sulfate)] (10 µM)", "number of time points": 0},
      {"smiles": "COc1ncc(Cl)cc1S(=O)(=O)Nc1ccc(F)c(C#Cc2cnc(N)nc2)c1F", "note": "(2.5 µM)", "number of time points": 2},
      {"smiles": "CNC(=O)c1cc(COc2nnc(Nc3ccc(Cl)cc3)c3ccoc23)ccn1", "note": "[Telatinib] (10 µM)", "number of time points": 0},
      {"smiles": "CC(C)(C)c1cc(O)ccc1O", "note": "(10 µM)", "number of time points": 0},
      {"smiles": "Cn1cnc2c(F)c(Nc3ccc(Br)cc3Cl)c(C(=O)NOCCO)cc21", "note": "[Selumetinib] (10 µM)", "number of time points": 0},
      {"smiles": "Cc1c(-c2c(F)cc(C(N)=O)c3[nH]c4c(c23)CC[C@H](C(C)(C)O)C4)cccc1-n1c(=O)c2cccc(F)c2n(C)c1=O", "note": "(2.5 µM)", "number of time points": 0},
      {"smiles": "O=C(CSC1=NCCN1)NC1CCCCCC1", "note": "[ICCB-19 (hydrochloride)] (2.5 µM)", "number of time points": 2},
      {"smiles": "Cn1cc(-c2ccc3nnc(Sc4ccc5ncccc5c4)n3n2)cn1", "note": "(10 µM)", "number of time points": 0},
      {"smiles": "Cc1ccccc1-c1c2nccc(-c3ccc(F)cc3F)c2cc[n+]1[O-]", "note": "(10 µM)", "number of time points": 0},
      {"smiles": "Cn1nccc1Nc1nccc(-c2ccn([C@H](CO)c3ccc(Cl)c(F)c3)c(=O)c2)n1", "note": "[Ravoxertinib hydrochloride] (10 µM)", "number of time points": 0},
      {"smiles": "OCCn1cc(-c2ccc3c(c2)CC/C3=N\\O)c(-c2ccncc2)n1", "note": "(10 µM)", "number of time points": 0},
      {"smiles": "NC(=O)c1nnc(N[C@@H]2CCCC[C@@H]2N)nc1Nc1cccc2cc[nH]c12", "note": "(10 µM)", "number of time points": 0},
      {"smiles": "O=C(NOCC(O)CO)c1cc(Br)c(F)c(F)c1Nc1ccc(I)cc1F", "note": "(stereo not given) (2.5 µM)", "number of time points": 0},
      {"smiles": "CN(C)CCSSCCNC(=O)C1CCN(C(=O)CSc2ccc(Cl)cc2)CC1", "note": "(10 µM)", "number of time points": 0},
      {"smiles": "CCC(C)N1c2ccccc2C(=O)N(C)c2cnc(Nc3ccc(C(=O)N4CCC(N5CCN(C)CC5)CC4)cc3OC)nc21", "note": "(stereo not given) (2.5 µM)", "number of time points": 0},
      {"smiles": "CN(C)CCCOc1ccc(-c2ccc3ncc4c(c3c2)n(C2CCOCC2)c(=O)n4C)cn1", "note": "(2 µM)", "number of time points": 0},
      {"smiles": "COc1ccc(-c2ccc3c(N4CCOCC4)nc(N4C[C@@H](C)O[C@@H](C)C4)nc3n2)cc1CO", "note": "(2.5 µM)", "number of time points": 0},
      {"smiles": "CC#CC(=O)N1CC[C@@H](n2c(=O)n(-c3ccc(Oc4ccccc4)cc3)c3c(N)ncnc32)C1", "note": "[Tirabrutinib (hydrochloride)] (10 µM)", "number of time points": 0},
      {"smiles": "NC(=O)c1ccc(-c2nc(-c3ccc4c(c3)OCCO4)c(-c3ccccn3)[nH]2)cc1", "note": "(10 µM)", "number of time points": 0},
      {"smiles": "FC(F)(F)c1ccc(CNc2ccc(Cc3c[nH]c4ncccc34)cn2)cc1", "note": "(10 µM)", "number of time points": 0},
      {"smiles": "COc1ccc(Cl)c(Nc2nc3ccccc3nc2NS(=O)(=O)c2cccc(NC(=O)C(C)(C)N)c2)c1", "note": "[Pilaralisib] (10 µM)", "number of time points": 0},
      {"smiles": "Oc1ccc(Nc2nc(-c3ccc(Cl)cc3)cs2)cc1", "note": "(10 µM)", "number of time points": 0},
      {"smiles": "Cc1nc(-c2cn3c(n2)-c2ccc(-c4cnn(C(C)(C)C(N)=O)c4)cc2OCC3)n(C(C)C)n1", "note": "[Taselisib] (10 µM)", "number of time points": 0},
      {"smiles": "COc1cccc(OC)c1C(=O)OCc1cc(O)ccc1O[C@@H]1O[C@H](CO)[C@@H](O)[C@H](O)[C@H]1O", "note": "[Curculigoside] (10 µM)", "number of time points": 0},
      {"smiles": "CCc1cc2c(cc1N1CCC(N3CCOCC3)CC1)C(C)(C)c1[nH]c3cc(C#N)ccc3c1C2=O", "note": "[Alectinib] (10 µM)", "number of time points": 0},
      {"smiles": "O=C(O)CCC(=O)Nc1ccc(Br)cn1", "note": "[Bikinin] (10 µM)", "number of time points": 0},
      {"smiles": "COc1cc(Nc2ncc(F)c(Nc3ccc4c(n3)N(COP(=O)(O)O)C(=O)C(C)(C)O4)n2)cc(OC)c1OC", "note": "[Fostamatinib (disodium hexahydrate)] (10 µM)", "number of time points": 0},
      {"smiles": "Nc1cc(C(F)(F)F)c(-c2cc(N3CCOCC3)nc(N3CCOCC3)n2)cn1", "note": "[Buparlisib (Hydrochloride)] (2.5 µM)", "number of time points": 0},
      {"smiles": "O=C(NCCN1CCCC1)c1cc(-c2ccc(CN3CCOCC3)cc2)nc2ccc(F)cc12", "note": "(10 µM)", "number of time points": 0},
      {"smiles": "Cc1ccc(C(=O)Nc2ccc(Oc3cc4cnn(C)c4cc3-c3cn[nH]c3)c(F)c2)c(=O)n1-c1ccc(F)cc1", "note": "[Merestinib] (2.5 µM)", "number of time points": 0},
      {"smiles": "NS(=O)(=O)c1ccc(-n2nc(C(F)(F)F)cc2-c2ccc(Cl)cc2)cc1", "note": "(10 µM)", "number of time points": 0},
      {"smiles": "CN1CCN(c2cnc3c(C4CCN(C(=O)c5ccc(OC(F)(F)F)cc5N)CC4)ncnc3c2)CC1", "note": "(10 µM)", "number of time points": 0},
      {"smiles": "COc1ccc2c(OCc3nnc4ccc(-c5ccccc5)nn34)ccnc2c1", "note": "(2 µM)", "number of time points": 0},
      {"smiles": "NC(=O)c1ccc2[nH]ccc2c1", "note": "(10 µM)", "number of time points": 0},
      {"smiles": "CNc1nc(Nc2ccc(C(=O)N3CCOCC3)cc2OC)nc2[nH]cc(Cl)c12", "note": "(2.5 µM)", "number of time points": 0}
    ]},
    {"target": "EGFR_G719S_T790M (UniProt P00533)", "experiment": "number of time points (of 5) at which kinase-Nluc abundance scored as decreased, DMSO-normalised (count); higher = more persistent destabilization", "details": "K562; 2-18 h", "values": [
      {"smiles": "Cn1cnc2c(F)c(Nc3ccc(Br)cc3Cl)c(C(=O)NOCCO)cc21", "note": "[Selumetinib (sulfate)] (10 µM)", "number of time points": 0},
      {"smiles": "COc1ncc(Cl)cc1S(=O)(=O)Nc1ccc(F)c(C#Cc2cnc(N)nc2)c1F", "note": "(2.5 µM)", "number of time points": 0},
      {"smiles": "CNC(=O)c1cc(COc2nnc(Nc3ccc(Cl)cc3)c3ccoc23)ccn1", "note": "[Telatinib] (10 µM)", "number of time points": 0},
      {"smiles": "CC(C)(C)c1cc(O)ccc1O", "note": "(10 µM)", "number of time points": 0},
      {"smiles": "Cn1cnc2c(F)c(Nc3ccc(Br)cc3Cl)c(C(=O)NOCCO)cc21", "note": "[Selumetinib] (10 µM)", "number of time points": 0},
      {"smiles": "Cc1c(-c2c(F)cc(C(N)=O)c3[nH]c4c(c23)CC[C@H](C(C)(C)O)C4)cccc1-n1c(=O)c2cccc(F)c2n(C)c1=O", "note": "(2.5 µM)", "number of time points": 0},
      {"smiles": "O=C(CSC1=NCCN1)NC1CCCCCC1", "note": "[ICCB-19 (hydrochloride)] (2.5 µM)", "number of time points": 0},
      {"smiles": "Cn1cc(-c2ccc3nnc(Sc4ccc5ncccc5c4)n3n2)cn1", "note": "(10 µM)", "number of time points": 0},
      {"smiles": "Cc1ccccc1-c1c2nccc(-c3ccc(F)cc3F)c2cc[n+]1[O-]", "note": "(10 µM)", "number of time points": 0},
      {"smiles": "Cn1nccc1Nc1nccc(-c2ccn([C@H](CO)c3ccc(Cl)c(F)c3)c(=O)c2)n1", "note": "[Ravoxertinib hydrochloride] (10 µM)", "number of time points": 0},
      {"smiles": "OCCn1cc(-c2ccc3c(c2)CC/C3=N\\O)c(-c2ccncc2)n1", "note": "(10 µM)", "number of time points": 0},
      {"smiles": "NC(=O)c1nnc(N[C@@H]2CCCC[C@@H]2N)nc1Nc1cccc2cc[nH]c12", "note": "(10 µM)", "number of time points": 0},
      {"smiles": "O=C(NOCC(O)CO)c1cc(Br)c(F)c(F)c1Nc1ccc(I)cc1F", "note": "(stereo not given) (2.5 µM)", "number of time points": 0},
      {"smiles": "CN(C)CCSSCCNC(=O)C1CCN(C(=O)CSc2ccc(Cl)cc2)CC1", "note": "(10 µM)", "number of time points": 0},
      {"smiles": "CCC(C)N1c2ccccc2C(=O)N(C)c2cnc(Nc3ccc(C(=O)N4CCC(N5CCN(C)CC5)CC4)cc3OC)nc21", "note": "(stereo not given) (2.5 µM)", "number of time points": 0},
      {"smiles": "CN(C)CCCOc1ccc(-c2ccc3ncc4c(c3c2)n(C2CCOCC2)c(=O)n4C)cn1", "note": "(2 µM)", "number of time points": 0},
      {"smiles": "COc1ccc(-c2ccc3c(N4CCOCC4)nc(N4C[C@@H](C)O[C@@H](C)C4)nc3n2)cc1CO", "note": "(2.5 µM)", "number of time points": 0},
      {"smiles": "CC#CC(=O)N1CC[C@@H](n2c(=O)n(-c3ccc(Oc4ccccc4)cc3)c3c(N)ncnc32)C1", "note": "[Tirabrutinib (hydrochloride)] (10 µM)", "number of time points": 0},
      {"smiles": "NC(=O)c1ccc(-c2nc(-c3ccc4c(c3)OCCO4)c(-c3ccccn3)[nH]2)cc1", "note": "(10 µM)", "number of time points": 0},
      {"smiles": "FC(F)(F)c1ccc(CNc2ccc(Cc3c[nH]c4ncccc34)cn2)cc1", "note": "(10 µM)", "number of time points": 0},
      {"smiles": "COc1ccc(Cl)c(Nc2nc3ccccc3nc2NS(=O)(=O)c2cccc(NC(=O)C(C)(C)N)c2)c1", "note": "[Pilaralisib] (10 µM)", "number of time points": 0},
      {"smiles": "Oc1ccc(Nc2nc(-c3ccc(Cl)cc3)cs2)cc1", "note": "(10 µM)", "number of time points": 0},
      {"smiles": "Cc1nc(-c2cn3c(n2)-c2ccc(-c4cnn(C(C)(C)C(N)=O)c4)cc2OCC3)n(C(C)C)n1", "note": "[Taselisib] (10 µM)", "number of time points": 0},
      {"smiles": "COc1cccc(OC)c1C(=O)OCc1cc(O)ccc1O[C@@H]1O[C@H](CO)[C@@H](O)[C@H](O)[C@H]1O", "note": "[Curculigoside] (10 µM)", "number of time points": 0},
      {"smiles": "CCc1cc2c(cc1N1CCC(N3CCOCC3)CC1)C(C)(C)c1[nH]c3cc(C#N)ccc3c1C2=O", "note": "[Alectinib] (10 µM)", "number of time points": 0},
      {"smiles": "O=C(O)CCC(=O)Nc1ccc(Br)cn1", "note": "[Bikinin] (10 µM)", "number of time points": 0},
      {"smiles": "COc1cc(Nc2ncc(F)c(Nc3ccc4c(n3)N(COP(=O)(O)O)C(=O)C(C)(C)O4)n2)cc(OC)c1OC", "note": "[Fostamatinib (disodium hexahydrate)] (10 µM)", "number of time points": 0},
      {"smiles": "Nc1cc(C(F)(F)F)c(-c2cc(N3CCOCC3)nc(N3CCOCC3)n2)cn1", "note": "[Buparlisib (Hydrochloride)] (2.5 µM)", "number of time points": 0},
      {"smiles": "O=C(NCCN1CCCC1)c1cc(-c2ccc(CN3CCOCC3)cc2)nc2ccc(F)cc12", "note": "(10 µM)", "number of time points": 0},
      {"smiles": "Cc1ccc(C(=O)Nc2ccc(Oc3cc4cnn(C)c4cc3-c3cn[nH]c3)c(F)c2)c(=O)n1-c1ccc(F)cc1", "note": "[Merestinib] (2.5 µM)", "number of time points": 0},
      {"smiles": "NS(=O)(=O)c1ccc(-n2nc(C(F)(F)F)cc2-c2ccc(Cl)cc2)cc1", "note": "(10 µM)", "number of time points": 0},
      {"smiles": "CN1CCN(c2cnc3c(C4CCN(C(=O)c5ccc(OC(F)(F)F)cc5N)CC4)ncnc3c2)CC1", "note": "(10 µM)", "number of time points": 0},
      {"smiles": "COc1ccc2c(OCc3nnc4ccc(-c5ccccc5)nn34)ccnc2c1", "note": "(2 µM)", "number of time points": 0},
      {"smiles": "NC(=O)c1ccc2[nH]ccc2c1", "note": "(10 µM)", "number of time points": 0},
      {"smiles": "CNc1nc(Nc2ccc(C(=O)N3CCOCC3)cc2OC)nc2[nH]cc(Cl)c12", "note": "(2.5 µM)", "number of time points": 0}
    ]}
  ]
}
